PubChem BioAssay (EPA / NIEHS)
This list was built around the results that the source calls inconclusive (neither active nor inactive); the mix of calls is not that of the screen. Where the call is inconclusive, the potency comes from a doubtful curve fit. Activity calls are given as the source filed them. Rule for the calls: active = hit-call score of the fitted dose curve at least 0.9, where 1 is the maximum; inconclusive = response in the unintended direction; inactive = score below 0.9.

Read-out: ABC Transporter (ABCB11), ABCB11 (gene 8647)
Experiment: CLD_ABCB11_48hr: CellzDirect (CLD) Gene Expression Assay for ABC Transporter (ABCB11) at 48 hours (AID 2283697)
Experimental: CLD_48hr is a cell-based, multiplexed-readout assay that uses hepatocyte, a human liver primary cell, with measurements taken at 48 hours after chemical dosing in a 96-well plate.CLD_ABCB11_48hr is one of 16 assay component(s) measured or calculated from the CLD_48hr assay. It is designed to make measurements of mRNA induction, a form of inducible reporter, as detected with chemiluminescence signals by Quantitative Nuclease Protection Assay (qNPA) technology.Data from the assay component CLD_ABCB11_48hr was analyzed at the endpoint, CLD_ABCB11_48hr, in the positive analysis fitting direction relative to DMSO as the negative control and baseline of activity. Using a type of inducible reporter, gain-of-signal activity can be used to understand changes in the reporter gene as they relate to the gene ABCB11. Furthermore, this assay endpoint can be referred to as a primary readout. To generalize the intended target to other relatable targets, this assay endpoint is annotated to the transporter intended target family, where subfamily is ABC transporter.
Human hepatocyte cultures were treated daily for two consecutive days with fresh dosing solutions containing appropriate concentrations of the 320 ToxCast chemicals (chemical identities were blinded to CellzDirect and other ToxCast collaborators), vehicle control (0.2% DMSO), and positive control inducers as summarized in Table 1. Due to the large number of treatment groups and chemicals examined, the ToxCast chemicals were divided into two groups (spanning two independent cultures of hepatocytes from separate donor preparations (Hu778: ToxCast plates 1 and 2; Hu776: ToxCast plates 3 and 4). Each preparation of human hepatocyte cultures was treated with respective vehicle control, medium only control, set of six positive controls/reference chemicals for the five hepatic receptor pathways, and a subset of eight of the ToxCast chemicals (indoxacarb, pyrithiobac-sodium, norflurazon, cyhalofop-butyl, methomyl, thiram, acetochlor, and propiconazole). These replicate data, coupled with internal replicates designed within the blinded ToxCast chemical library, provided additional data to evaluate interindividual differences between hepatocyte preparations and their potential impact on chemical profiles.Cell morphology and integrity were evaluated using phase-contrast microscopy as an indicator of hepatocyte cell health (Tyson & Green, 1987). Cultures for each treatment group (i.e., media, vehicle [0.2% DMSO], positive control inducers [multiple concentrations], and the ToxCast chemicals [multiple concentrations]) were observed and cell morphology was assessed relative to vehicle control cultures at each harvest time point (0, 6, 24, or 48 h). […] Images were evaluated at the conclusion of the study to assess changes in cell integrity and account for the effects of chemical exposure on uncharacteristic changes in concentration-dependent gene expression profiles. The results from these determinations of apparent cytotoxicity were annotated (yes/no) alongside the corresponding qNPA data for reference.At the conclusion of each treatment period, hepatocyte cultures (96-well) were washed with 1 volume of HBSS, lysed by addition of 25 ul ArrayPlate lysis buffer (HTG, Tucson, AZ), and 70 ul/well of Denaturation Oil, denatured by incubation at 95C for 10 min, and frozen at approximately -70C until analysis by nuclease protection assay (qNPA) (Roberts et al., 2007). For qNPA analysis, cell lysates were thawed at 50C for approximately 30 min, qNPA probes were added, and samples were incubated at 95C for 10 min to begin the detection process by denaturing the target RNA, dissociating the duplexes and secondary structure hybridization. At the conclusion of the hybridization period, S1 nuclease reagent was added to each sample to digest all nonprotected nucleotides at 50C for 60-90 min. […]

Row | SMILES | AC50 | outcome
1 | COC(=O)CSc1cc(N=c2sc(=O)n3n2CCCC3)c(F)cc1Cl | inconclusive: 20 µM | 
2 | CCCN(CCC)C(=O)SCC |  | inactive
3 | CCC(C)OC(=O)N1CCCCC1CCO (configuration not stated) |  | inactive
4 | COC(=O)c1ccc(CNS(C)(=O)=O)cc1S(=O)(=O)NC(=O)Nc1nc(OC)cc(OC)n1 | inconclusive: 20 µM | 
5 | CCN(CC)C(=O)c1cccc(C)c1 | inconclusive: 20 µM | 
6 | COC(=O)c1c(Cl)nn(C)c1S(=O)(=O)NC(=O)Nc1nc(OC)cc(OC)n1 |  | inactive
7 | CCNc1nc(N)nc(Cl)n1 |  | inactive
8 | CCSC(=O)N(CC(C)C)CC(C)C | inconclusive: 0.0147 µM | 
9 | CCCCC(CC)CN1C(=O)C2C3C=CC(C3)C2C1=O (configuration not stated) | inconclusive: 20 µM | 
10 | CCN(Cc1c(F)cccc1Cl)c1c([N+](=O)[O-])cc(C(F)(F)F)cc1[N+](=O)[O-] | inconclusive: 3.74 µM | 
11 | CCOC(=O)C(C)Oc1ccc(Oc2nc3ccc(Cl)cc3o2)cc1 (configuration not stated) | inconclusive: 20 µM | 
12 | C=CCOC(Cn1ccnc1)c1ccc(Cl)cc1Cl (configuration not stated) | inconclusive: 20 µM | 
13 | COC(=O)c1ccccc1S(=O)(=O)NC(=O)Nc1nc(OC(F)F)cc(OC(F)F)n1 | inconclusive: 0.0431 µM | 
14 | COC(=O)c1ccc(I)cc1S(=O)(=O)NC(=O)Nc1nc(C)nc(OC)n1 | inconclusive: 20 µM | 
15 | O=C(Nc1ccc([N+](=O)[O-])cc1Cl)c1cc(Cl)ccc1O |  | inactive
16 | OB(O)O |  | inactive
17 | C#CCOC(=O)[C@@H](C)Oc1ccc(Oc2ncc(Cl)cc2F)cc1 |  | inactive

Retrieved by structure from above, 2 records:
Row | SMILES | AC50 | outcome
9 | CCCCC(CC)CN1C(=O)C2C3C=CC(C3)C2C1=O (configuration not stated) | inconclusive: 20 µM | 
13 | COC(=O)c1ccccc1S(=O)(=O)NC(=O)Nc1nc(OC(F)F)cc(OC(F)F)n1 | inconclusive: 0.0431 µM | 
